Test results published in the supplement of paper PMC10849652.
This is one part of the list.

Sequences of proteins named here, by UniProt entry; tags and fusion partners are left off. A change or cut given only in a name is not applied to a line headed by its entry.
UniProt Q9H8G2: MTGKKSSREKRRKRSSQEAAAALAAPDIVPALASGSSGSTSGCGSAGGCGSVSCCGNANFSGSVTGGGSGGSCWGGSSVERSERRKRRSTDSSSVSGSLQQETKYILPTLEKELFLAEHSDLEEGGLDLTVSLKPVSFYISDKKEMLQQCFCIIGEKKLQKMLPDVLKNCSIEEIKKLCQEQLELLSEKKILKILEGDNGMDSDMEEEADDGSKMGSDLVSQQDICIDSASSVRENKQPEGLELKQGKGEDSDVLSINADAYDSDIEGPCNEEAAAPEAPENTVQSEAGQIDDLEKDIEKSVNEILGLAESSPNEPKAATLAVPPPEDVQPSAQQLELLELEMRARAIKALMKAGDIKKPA
UniProt P01024, whole entry, looked up: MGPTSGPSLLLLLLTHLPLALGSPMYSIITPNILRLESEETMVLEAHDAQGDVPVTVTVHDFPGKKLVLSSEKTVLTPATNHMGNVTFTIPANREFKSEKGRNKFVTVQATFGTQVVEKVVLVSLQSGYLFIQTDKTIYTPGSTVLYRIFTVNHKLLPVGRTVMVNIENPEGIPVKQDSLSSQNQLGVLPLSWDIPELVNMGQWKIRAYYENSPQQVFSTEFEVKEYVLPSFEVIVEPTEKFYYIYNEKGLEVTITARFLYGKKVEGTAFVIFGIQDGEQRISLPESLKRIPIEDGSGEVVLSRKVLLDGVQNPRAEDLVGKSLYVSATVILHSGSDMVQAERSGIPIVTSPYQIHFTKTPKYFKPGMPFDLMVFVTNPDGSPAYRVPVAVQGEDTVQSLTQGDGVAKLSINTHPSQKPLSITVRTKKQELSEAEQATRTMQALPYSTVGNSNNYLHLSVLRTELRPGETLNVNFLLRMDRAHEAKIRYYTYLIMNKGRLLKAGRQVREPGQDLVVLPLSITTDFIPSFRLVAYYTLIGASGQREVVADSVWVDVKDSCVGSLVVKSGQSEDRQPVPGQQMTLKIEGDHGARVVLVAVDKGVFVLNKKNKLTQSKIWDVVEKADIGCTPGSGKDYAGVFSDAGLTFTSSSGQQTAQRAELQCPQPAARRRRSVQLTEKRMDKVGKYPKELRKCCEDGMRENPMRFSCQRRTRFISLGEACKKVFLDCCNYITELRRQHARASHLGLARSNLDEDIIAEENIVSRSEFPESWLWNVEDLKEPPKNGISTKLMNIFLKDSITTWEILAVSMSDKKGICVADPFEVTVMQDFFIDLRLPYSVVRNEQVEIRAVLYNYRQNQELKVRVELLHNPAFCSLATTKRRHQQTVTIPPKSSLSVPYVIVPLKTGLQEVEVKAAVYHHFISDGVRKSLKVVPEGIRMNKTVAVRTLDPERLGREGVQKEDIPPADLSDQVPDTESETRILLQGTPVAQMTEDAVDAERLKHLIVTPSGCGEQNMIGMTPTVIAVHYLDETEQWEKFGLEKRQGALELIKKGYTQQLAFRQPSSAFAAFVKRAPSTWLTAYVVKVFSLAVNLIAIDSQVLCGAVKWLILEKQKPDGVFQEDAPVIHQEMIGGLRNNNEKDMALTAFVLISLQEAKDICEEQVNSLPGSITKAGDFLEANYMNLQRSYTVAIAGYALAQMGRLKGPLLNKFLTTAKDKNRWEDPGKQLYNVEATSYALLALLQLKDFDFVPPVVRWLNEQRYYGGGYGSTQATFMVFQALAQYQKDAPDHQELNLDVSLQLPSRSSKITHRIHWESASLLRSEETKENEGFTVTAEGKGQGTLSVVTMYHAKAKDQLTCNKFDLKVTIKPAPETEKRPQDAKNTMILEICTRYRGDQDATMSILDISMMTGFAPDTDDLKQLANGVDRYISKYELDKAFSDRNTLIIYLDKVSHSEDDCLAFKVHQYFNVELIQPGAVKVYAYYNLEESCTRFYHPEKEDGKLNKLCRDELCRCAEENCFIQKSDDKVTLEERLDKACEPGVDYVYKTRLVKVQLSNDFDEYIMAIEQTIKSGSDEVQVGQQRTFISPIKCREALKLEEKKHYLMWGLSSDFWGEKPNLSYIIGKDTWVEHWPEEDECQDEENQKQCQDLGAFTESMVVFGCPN
UniProt Q01518, whole entry, looked up: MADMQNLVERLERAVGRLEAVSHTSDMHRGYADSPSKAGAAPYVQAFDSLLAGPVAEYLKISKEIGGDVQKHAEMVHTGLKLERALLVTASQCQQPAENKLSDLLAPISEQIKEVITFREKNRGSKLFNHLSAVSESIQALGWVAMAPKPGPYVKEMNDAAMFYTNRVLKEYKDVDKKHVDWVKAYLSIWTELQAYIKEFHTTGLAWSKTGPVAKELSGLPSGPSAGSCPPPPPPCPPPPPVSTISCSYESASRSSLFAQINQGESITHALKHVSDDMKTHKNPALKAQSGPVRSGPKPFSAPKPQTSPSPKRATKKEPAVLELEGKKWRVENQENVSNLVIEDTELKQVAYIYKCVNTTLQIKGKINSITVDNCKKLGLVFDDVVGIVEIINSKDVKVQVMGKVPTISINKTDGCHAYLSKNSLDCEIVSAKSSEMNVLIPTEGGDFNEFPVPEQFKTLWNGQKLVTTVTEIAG
UniProt Q9HAS0: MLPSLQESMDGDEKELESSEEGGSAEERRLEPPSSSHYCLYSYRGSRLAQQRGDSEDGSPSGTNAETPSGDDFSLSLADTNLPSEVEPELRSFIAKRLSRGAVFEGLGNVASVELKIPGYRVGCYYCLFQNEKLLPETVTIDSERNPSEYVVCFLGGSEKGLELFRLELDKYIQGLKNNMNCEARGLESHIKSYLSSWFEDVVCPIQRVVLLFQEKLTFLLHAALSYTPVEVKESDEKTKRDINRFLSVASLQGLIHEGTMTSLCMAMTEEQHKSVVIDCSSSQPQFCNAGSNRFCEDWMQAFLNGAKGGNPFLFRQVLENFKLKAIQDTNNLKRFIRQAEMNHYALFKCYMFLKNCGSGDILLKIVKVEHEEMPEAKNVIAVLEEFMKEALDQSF
UniProt Q7Z7L8: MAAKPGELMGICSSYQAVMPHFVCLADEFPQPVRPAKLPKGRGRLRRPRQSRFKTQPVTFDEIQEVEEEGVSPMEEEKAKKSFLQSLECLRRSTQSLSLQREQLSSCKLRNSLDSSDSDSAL
UniProt P07451: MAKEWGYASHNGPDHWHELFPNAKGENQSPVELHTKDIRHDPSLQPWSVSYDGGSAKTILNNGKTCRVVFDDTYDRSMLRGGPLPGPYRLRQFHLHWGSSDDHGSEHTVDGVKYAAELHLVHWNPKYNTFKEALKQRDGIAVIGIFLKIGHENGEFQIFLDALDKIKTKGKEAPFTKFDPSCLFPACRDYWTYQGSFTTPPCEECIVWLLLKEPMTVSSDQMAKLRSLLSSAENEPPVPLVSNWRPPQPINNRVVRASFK
UniProt Q7Z4R8: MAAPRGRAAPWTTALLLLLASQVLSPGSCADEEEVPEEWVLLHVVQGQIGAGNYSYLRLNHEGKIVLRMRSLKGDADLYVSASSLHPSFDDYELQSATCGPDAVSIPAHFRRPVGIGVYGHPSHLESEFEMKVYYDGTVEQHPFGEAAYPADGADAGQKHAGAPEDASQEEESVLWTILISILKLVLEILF
UniProt Q9BV19: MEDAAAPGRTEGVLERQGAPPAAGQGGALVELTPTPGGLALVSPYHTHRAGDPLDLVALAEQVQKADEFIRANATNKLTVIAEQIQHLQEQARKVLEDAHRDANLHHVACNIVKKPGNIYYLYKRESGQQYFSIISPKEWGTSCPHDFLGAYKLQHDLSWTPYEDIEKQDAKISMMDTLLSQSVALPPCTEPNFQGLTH
UniProt O75808: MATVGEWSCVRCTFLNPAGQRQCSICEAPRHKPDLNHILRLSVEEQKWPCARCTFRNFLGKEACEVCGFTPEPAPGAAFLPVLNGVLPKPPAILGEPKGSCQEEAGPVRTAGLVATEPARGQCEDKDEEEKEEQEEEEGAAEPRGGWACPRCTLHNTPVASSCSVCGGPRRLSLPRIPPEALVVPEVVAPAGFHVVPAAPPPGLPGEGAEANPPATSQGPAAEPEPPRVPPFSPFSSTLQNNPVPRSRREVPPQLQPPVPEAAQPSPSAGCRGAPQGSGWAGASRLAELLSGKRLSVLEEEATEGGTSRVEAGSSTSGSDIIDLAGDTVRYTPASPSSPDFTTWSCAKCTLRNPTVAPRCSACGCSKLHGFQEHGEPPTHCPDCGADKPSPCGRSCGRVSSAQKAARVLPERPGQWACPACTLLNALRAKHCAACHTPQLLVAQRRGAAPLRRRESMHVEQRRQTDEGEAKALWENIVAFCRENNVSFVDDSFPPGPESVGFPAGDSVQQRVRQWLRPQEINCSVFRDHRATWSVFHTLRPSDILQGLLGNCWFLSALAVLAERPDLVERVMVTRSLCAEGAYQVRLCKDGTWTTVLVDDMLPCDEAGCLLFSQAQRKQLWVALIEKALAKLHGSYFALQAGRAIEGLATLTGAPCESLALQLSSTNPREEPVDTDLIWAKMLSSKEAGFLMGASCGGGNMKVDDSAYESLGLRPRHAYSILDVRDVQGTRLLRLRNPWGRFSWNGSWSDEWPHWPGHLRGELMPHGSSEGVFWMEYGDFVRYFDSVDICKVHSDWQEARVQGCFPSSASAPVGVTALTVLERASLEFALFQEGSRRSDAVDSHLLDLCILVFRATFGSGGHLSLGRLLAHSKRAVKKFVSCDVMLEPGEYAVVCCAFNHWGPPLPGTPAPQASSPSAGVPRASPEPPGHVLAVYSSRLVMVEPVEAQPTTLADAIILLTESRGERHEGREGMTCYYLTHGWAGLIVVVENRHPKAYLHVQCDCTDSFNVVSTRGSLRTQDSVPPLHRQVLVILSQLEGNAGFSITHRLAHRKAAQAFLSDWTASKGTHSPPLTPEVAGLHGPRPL
UniProt P10643, whole entry, looked up: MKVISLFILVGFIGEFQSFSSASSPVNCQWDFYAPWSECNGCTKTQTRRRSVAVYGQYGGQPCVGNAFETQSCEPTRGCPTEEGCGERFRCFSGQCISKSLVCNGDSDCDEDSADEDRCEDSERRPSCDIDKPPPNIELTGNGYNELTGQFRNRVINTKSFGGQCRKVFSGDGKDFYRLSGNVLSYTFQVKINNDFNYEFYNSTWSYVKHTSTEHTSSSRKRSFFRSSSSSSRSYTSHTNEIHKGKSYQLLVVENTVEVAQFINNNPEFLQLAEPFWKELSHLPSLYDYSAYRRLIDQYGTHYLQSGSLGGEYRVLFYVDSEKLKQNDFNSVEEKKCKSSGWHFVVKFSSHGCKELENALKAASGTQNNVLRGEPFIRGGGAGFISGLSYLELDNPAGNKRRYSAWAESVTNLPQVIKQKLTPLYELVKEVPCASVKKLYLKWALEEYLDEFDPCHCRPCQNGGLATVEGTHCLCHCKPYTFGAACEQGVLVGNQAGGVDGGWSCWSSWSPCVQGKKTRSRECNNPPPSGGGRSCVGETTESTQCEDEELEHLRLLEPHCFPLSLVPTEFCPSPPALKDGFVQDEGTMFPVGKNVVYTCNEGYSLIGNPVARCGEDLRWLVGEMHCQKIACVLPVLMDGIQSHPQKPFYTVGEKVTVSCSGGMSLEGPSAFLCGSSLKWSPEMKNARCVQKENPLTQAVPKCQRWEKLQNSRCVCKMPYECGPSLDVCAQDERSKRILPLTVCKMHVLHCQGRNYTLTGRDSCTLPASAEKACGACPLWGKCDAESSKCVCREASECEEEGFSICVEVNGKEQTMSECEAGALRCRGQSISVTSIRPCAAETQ
UniProt Q3KRA6: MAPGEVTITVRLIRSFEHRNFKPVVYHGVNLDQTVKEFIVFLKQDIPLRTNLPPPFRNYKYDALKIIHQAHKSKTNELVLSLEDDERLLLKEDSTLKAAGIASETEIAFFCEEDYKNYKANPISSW
UniProt Q8N1Q1: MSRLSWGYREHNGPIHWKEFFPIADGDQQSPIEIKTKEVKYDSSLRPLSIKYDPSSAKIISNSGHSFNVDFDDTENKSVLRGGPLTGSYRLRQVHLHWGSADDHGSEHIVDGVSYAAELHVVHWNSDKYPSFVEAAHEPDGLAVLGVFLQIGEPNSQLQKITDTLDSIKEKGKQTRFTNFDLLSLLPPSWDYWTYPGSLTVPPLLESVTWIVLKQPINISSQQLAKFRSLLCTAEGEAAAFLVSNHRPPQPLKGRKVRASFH
UniProt P04003: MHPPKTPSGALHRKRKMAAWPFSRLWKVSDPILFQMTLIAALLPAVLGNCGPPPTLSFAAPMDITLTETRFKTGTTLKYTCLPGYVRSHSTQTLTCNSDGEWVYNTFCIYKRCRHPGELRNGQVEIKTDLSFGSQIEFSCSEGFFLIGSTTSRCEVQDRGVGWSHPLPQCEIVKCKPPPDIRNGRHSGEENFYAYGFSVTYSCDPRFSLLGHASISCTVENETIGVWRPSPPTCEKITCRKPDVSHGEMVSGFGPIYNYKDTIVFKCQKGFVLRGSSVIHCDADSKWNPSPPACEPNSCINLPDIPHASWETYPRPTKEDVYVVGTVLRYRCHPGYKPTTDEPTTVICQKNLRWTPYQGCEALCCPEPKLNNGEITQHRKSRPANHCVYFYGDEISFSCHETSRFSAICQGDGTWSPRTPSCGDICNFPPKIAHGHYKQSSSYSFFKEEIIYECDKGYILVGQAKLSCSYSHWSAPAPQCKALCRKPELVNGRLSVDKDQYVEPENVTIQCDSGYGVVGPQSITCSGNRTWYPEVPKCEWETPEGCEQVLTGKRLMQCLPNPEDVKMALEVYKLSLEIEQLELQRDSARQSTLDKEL

Experiments:
Test in all cases: log2 fold change, soluble protein after heating vs DMSO (PISA); higher = thermal stabilisation; K562 cells, 10 uM, 30 min; active = over 0.2 and 3.5 SD of the protein, either way, in both replicates (recomputed)
[1] = compound: CC1=C(C=C(C=C1)NC(=O)C2=CC(=CC=C2)C(C)(C)C#N)NC3=CC4=C(C=C3)N=CN(C4=O)C
Procedure, shortened: (§1)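 Quantification of soluble protein used TMTpro 16plex LC-MS/MS, with channel sums equalised. Samples were the supernatant after 21,000xg for 90 min of pooled aliquots from K562 cells (2×10^6 cells/mL) treated with 10 μM compound for 30 min, heated for 3 min over 48°C-58°C, and extracted in PBS with 0.5% NP-40 at 4°C. Values, from duplicates, describe thermal stability against control samples on a log2 fold-change scale.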

[2] = compound: CC1=C(C=C(C=C1)NC(=O)C2=CC(=CC=C2)N(C)C)NC(=O)C3=CC=C(C=C3)O
Procedure, shortened: as §1

[3] = compound: CC1=CC=C(C=C1)SC2=C3C=C(SC3=CN=C2)C(=O)N
Procedure, shortened: as §1

[4] = compound: CC1=NC(=CC=C1)C2=C(N=C(N2)C(C)(C)C)C3=CC4=NC=CN=C4C=C3
Procedure, shortened: as §1

[5] = compound: CCCCN(Cc1ccc(C(=O)NO)cc1)C(=O)Nc1ccccc1 [Nexturastat A]
Procedure, shortened: as §1

[6] = compound: CCCS(=O)(=O)Nc1ccc(F)c(C(=O)c2c[nH]c3ncc(-c4ccc(Cl)cc4)cc23)c1F [vemurafenib]
Procedure, shortened: as §1

[7] = compound: CCCS(=O)(=O)Nc1ccc(F)c(C(=O)c2c[nH]c3ncc(Cl)cc23)c1F
Procedure, shortened: as §1

[8] = compound: CCN(CC)Cc1ccc2cc(COC(=O)Nc3ccc(C(=O)NO)cc3)ccc2c1 [givinostat]
Procedure, shortened: as §1

[9] = compound: CCN(CCCOc1ccc2c(Nc3cc(CC(=O)Nc4cccc(F)c4)[nH]n3)ncnc2c1)CCOP(=O)(O)O [barasertib]
Procedure, shortened: as §1

[10] = compound: CCCc1cc(C)[nH]c(=O)c1CNC(=O)c1cc(-c2ccnc(N3CCN(C)CC3)c2)cc2c1cnn2C(C)C
Procedure, shortened: as §1

Measured: log2 fold change

CAAP1 (UniProt Q9H8G2)
inactive: [1] -0.066 | [2] 0.165 | [3] -0.022 | [4] -0.268 | [5] 0.244 | [6] 0.067 | [7] -0.054 | [8] -0.019 | [9] 0.046

C15orf41 (UniProt Q9Y2V0)
inactive: [1] 0.022 | [2] -0.026 | [3] -0.017 | [4] -0.002 | [5] -0.006 | [6] 0.015 | [7] 0.032 | [8] -0.012

C1D (UniProt Q13901)
inactive: [1] 0.058 | [2] 0.002 | [3] -0.015 | [4] -0.045 | [5] -0.053 | [6] -0.046 | [7] -0.175 | [10] -0.019 | [8] -0.002 | [9] 0.104

CALU isoform 4 (UniProt O43852)
inactive: [1] -0.015 | [2] -0.005 | [3] 0.027 | [4] 0.006 | [5] -0.062 | [6] -0.024 | [7] -0.031 | [10] -0.056 | [8] -0.016 | [9] -0.014

C3 (UniProt P01024)
inactive: [1] -0.057 | [2] 0.347 | [3] 0.043 | [4] 0.121 | [5] -0.092 | [6] 0.087 | [7] -0.13 | [10] -0.143 | [8] -0.1 | [9] -0.007

CAP1 (UniProt Q01518)
inactive: [1] 0.029 | [2] 0.005 | [3] 0.038 | [4] -0.004 | [5] -0.03 | [6] -0.017 | [7] 0.005 | [10] -0.049 | [8] -0.033 | [9] -0.008

C1orf131 isoform 5 (UniProt Q8NDD1)
inactive: [1] -0.058 | [2] 0.024 | [3] -0.115 | [4] -0.113 | [5] 0.163 | [6] -0.123 | [7] -0.084 | [10] 0.1 | [8] 0.026 | [9] -0.028

C3orf38 (UniProt Q5JPI3)
inactive: [1] -0.135 | [2] -0.026 | [3] 0.004 | [4] 0.14 | [5] 0.033 | [6] 0.113 | [7] 0.02 | [10] 0.026 | [9] -0.312

C17orf75 (UniProt Q9HAS0)
inactive: [1] -0.038 | [2] 0.005 | [3] 0.012 | [4] -0.02 | [5] 0.134 | [6] -0.006 | [7] 0.068 | [10] 0.046 | [8] 0.114 | [9] -0.091

CANX isoform 2 (UniProt P27824)
inactive: [1] 0.078 | [2] -0.006 | [3] -0.048 | [4] -0.057 | [5] 0.075 | [6] -0.026 | [7] -0.04 | [10] 0.041 | [8] -0.019 | [9] -0.007

C22orf39 (UniProt Q6P5X5)
inactive: [1] -0.033 | [2] 0.059 | [3] -0.058 | [4] -0.008 | [5] -0.024 | [7] 0.205 | [10] 0.017 | [8] 0.044 | [9] -0.042

C1orf52 (UniProt Q8N6N3)
inactive: [1] -0.008 | [2] 0.039 | [3] -0.033 | [4] 0.012 | [5] 0.009 | [6] -0.016 | [7] 0.014 | [10] -0.042 | [8] -0.029 | [9] -0.016

C6orf136 isoform 4 (UniProt Q5SQH8)
inactive: [1] -0.166 | [2] -0.021 | [4] 0.107 | [10] -0.39 | [8] 0.114 | [9] -0.01

CACTIN isoform 2 (UniProt Q8WUQ7)
inactive: [1] 0.076 | [3] -0.008 | [4] 0.058 | [5] 0.103 | [6] -0.011 | [7] -0.035 | [10] -0.051 | [8] 0.07 | [9] 0.016

C1orf167 isoform 2 (UniProt Q5SNV9)
inactive: [1] -0.029 | [3] -0.171 | [4] 0 | [5] 0.033 | [6] -0.237 | [7] -0.241 | [10] -0.126 | [8] -0.03 | [9] -0.032

BTK isoform 2 (UniProt Q06187)
inactive: [1] -0.053 | [2] 0.072 | [4] -0.025 | [5] 0.349 | [6] 0.008 | [10] 0.02 | [8] 0.233

C16orf87 (UniProt Q6PH81)
inactive: [1] -0.171 | [5] -0.137 | [6] 0.016 | [10] -0.037 | [9] 0.104

C11orf96 (UniProt Q7Z7L8)
inactive: [2] -0.171 | [3] 0.067 | [4] -0.236 | [5] 0.071 | [6] 0.146 | [7] -0.03

CA3 (UniProt P07451)
inactive: [1] -0.189 | [2] 0.122 | [5] 0.083

C6orf120 (UniProt Q7Z4R8)
inactive: [1] -0.054 | [2] 0.045 | [3] 0.018 | [4] -0.094 | [6] -0.035 | [7] 0.069 | [8] -0.011 | [9] 0.017

C1orf50 (UniProt Q9BV19)
inactive: [1] -0.052 | [2] -0.112 | [3] 0.007 | [5] 0.009 | [6] 0.126 | [7] -0.039 | [10] 0.015 | [8] -0.023 | [9] -0.078

CAPN15 (UniProt O75808)
inactive: [1] -0.049 | [3] -0.145 | [5] -0.028 | [7] -0.082 | [8] 0.067 | [9] -0.436

BTBD1 (UniProt Q9H0C5)
inactive: [2] -0.217

C9orf85 isoform 1 (UniProt Q96MD7)
inactive: [1] 0.032 | [3] 0.123 | [4] -0.11 | [5] -0.06 | [6] 0.04 | [7] 0.041 | [10] 0.061 | [8] 0.029

CAPN1 (UniProt E9PLX0)
inactive: [1] 0.21 | [4] 0.008 | [8] -0.064 | [9] 0.143

C7 (UniProt P10643)
inactive: [1] -0.089 | [3] 0.073 | [4] -0.06 | [5] -0.274 | [6] 0.039 | [7] -0.2 | [8] -0.109 | [9] 0.029

C2orf76 (UniProt Q3KRA6)
inactive: [1] -0.064 | [6] 0.08 | [10] -0.112 | [8] -0.062 | [9] 0.055

CARD11 (UniProt Q9BXL7)
inactive: [1] -0.062 | [3] 0.037 | [4] -0.042 | [5] 0.116 | [7] 0.007

CALM1 (UniProt G3V361)
inactive: [1] -0.13 | [8] -0.084

Reprinted from the listing (two entries):
C7 (UniProt P10643)
inactive: [1] -0.089 | [3] 0.073 | [4] -0.06 | [5] -0.274 | [6] 0.039 | [7] -0.2 | [8] -0.109 | [9] 0.029

C2orf76 (UniProt Q3KRA6)
inactive: [1] -0.064 | [6] 0.08 | [10] -0.112 | [8] -0.062 | [9] 0.055

(listing goes on)

CA13 (UniProt Q8N1Q1)
inactive: [1] -0.078 | [2] -0.075 | [4] 0.069 | [5] -0.037 | [6] -0.015 | [10] 0.081 | [8] -0.022 | [9] -0.057

CARD6 (UniProt Q9BX69)
inactive: [2] 0.027

C7orf26 (UniProt Q96N11)
inactive: [1] -0.041 | [2] -0.028 | [4] -0.078 | [5] 0.054 | [6] 0.146 | [8] -0.048 | [9] -0.028

C18orf25 isoform 2 (UniProt Q96B23)
inactive: [1] 0.023 | [3] 0.004 | [4] 0.084 | [5] -0.037 | [6] -0.135 | [7] 0 | [10] 0.006 | [8] 0.061 | [9] -0.03

C4BPA (UniProt P04003)
inactive: [1] 0.134 | [4] -0.082 | [5] -0.124 | [10] 0.068 | [8] -0.138 | [9] 0.063
